PubChem BioAssay AID504744 – Drosophila RNAi Screening Center | 2011
Test: 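Uncover factors, including feedback loops, that control dAkt activation in fly cells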 (primary screen). System: Drosophila Kc167 cells. Reagent: long dsRNA against Drosophila genes, 250 ng dsRNA per well of a 384-well plate. Time to read-out: 3 days of knock-down, then overnight serum-free starvation before stimulation. Conditions: bovine insulin at 387 nM for 10 minutes after 12 h without serum. Measurement: 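In-cell antibody fluorescence for phospho-dAkt in each well over DNA-dye signal, with log2 residuals expressed as z-scores adjusted for cell count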. Rule for the call: 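Under insulin, a gene counts as a hit if the average z-score of two replicates lies above 2.5 or below -2.5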.
In all, the deposit lists about 23,000 reagents; this is an unselected part of those with a known target gene and a result. Over the whole deposit, 98 (0.43%) are marked active. 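Only hit calls are given; the phospho-dAkt signals, z-scores and hit direction were not deposited.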 The numbers tell different reagents against one gene apart. A plus sign joins genes that one reagent is predicted to hit.

no.	gene	dsRNA no.	outcome
1	CkIIbeta (Casein kinase II beta subunit)	1	inactive
2	CG12290	1	inactive
3	Pdk (Pyruvate dehydrogenase kinase)	1	inactive
4	Cpr57A + Obp57d	1	inactive
5	Cpr57A + Obp57d	2	inactive
6	CG13337	1	inactive
7	CG17739	1	inactive
8	Btk (Bruton tyrosine kinase)	1	inactive
9	Btk (Bruton tyrosine kinase)	2	inactive
10	Btk (Bruton tyrosine kinase)	3	inactive
11	CG9231	1	inactive
12	CG4829	1	inactive
13	CG1578	1	inactive
14	serp (serpentine)	1	inactive
15	serp (serpentine)	2	inactive
16	CG15741	1	inactive
17	UQCR-C1 (Ubiquinol-cytochrome c reductase core protein 1)	1	inactive
18	fd19B (forkhead domain 19B)	1	inactive
19	CG2533	1	inactive
20	ATPsyndelta (ATP synthase, delta subunit)	1	inactive
21	CG13000	1	inactive
22	Nufip	1	inactive
23	Lam (Lamin)	1	inactive
24	CG4009	1	inactive
25	fru (fruitless)	1	inactive
26	fru (fruitless)	2	inactive
27	fru (fruitless)	3	inactive
28	fru (fruitless)	4	inactive
29	Parp16 (Poly(ADP-ribose) polymerase 16)	1	inactive
30	Muc11A (Mucin 11A)	1	inactive
31	CG5327	1	inactive
32	CG4597	1	inactive
33	PolrMT (RNA polymerase mitochondrial)	1	inactive
34	CG3226	1	inactive
35	Or63a (Odorant receptor 63a)	1	inactive
36	tal-1A + tal-2A + tal-AA + 1 more	1	inactive
37	Mal-A1 (Maltase A1)	1	inactive
38	bnb (bangles and beads)	1	inactive
39	Hrs (Hepatocyte growth factor regulated tyrosine kinase substrate)	1	inactive
40	CG15614	1	inactive
41	POSH (Plenty of SH3s)	1	inactive
42	Nepl10 (Neprilysin-like 10)	1	inactive
43	dnr1 (defense repressor 1)	1	inactive
44	dnr1 (defense repressor 1)	2	inactive
45	CG42342	1	inactive
46	CG42342	2	inactive
47	CG42342	3	inactive
48	CG42342	4	inactive
49	CG42342	5	inactive
50	CG42342	6	inactive
51	CG42342	7	inactive
52	sphinx2	1	inactive
53	Fpgs1 (Folylpolyglutamate synthase 1)	1	inactive
54	MED17 (Mediator complex subunit 17)	1	inactive
55	Cpr78Cb (Cuticular protein 78Cb)	1	inactive
56	Sema5c (Semaphorin 5c)	1	inactive
57	AIMP1 (aaRS-interacting multifunctional protein 1)	1	inactive
58	Ehbp1 (Eps15 homology domain containing protein-binding protein 1)	1	inactive
59	CG4456 + Hsp22	1	inactive
60	CG4456 + Hsp22	2	inactive
61	mri (mrityu)	1	inactive
62	NKAIN (Na,K-ATPase Interacting)	1	inactive
63	NKAIN (Na,K-ATPase Interacting)	2	inactive
64	CG2816	1	inactive
65	CG31832	1	inactive
66	mtrm (matrimony)	1	inactive
67	CG31897	1	inactive
68	AttB (Attacin-B)	1	inactive
69	CG14591	1	inactive
70	CG33310	1	inactive
71	CG4042	1	inactive
72	fmt (fiery mountain)	1	inactive
73	Zif (Zinc-finger protein)	1	inactive
74	Cpr49Ad (Cuticular protein 49Ad)	1	inactive
75	Notum	1	active
76	m (miniature)	1	inactive
77	CG33758	1	inactive
78	PIG-N (Phosphatidylinositol glycan anchor biosynthesis class N)	1	inactive
79	CG5346	1	inactive
80	Pal2 (Peptidyl-alpha-hydroxyglycine-alpha-amidating lyase 2)	1	inactive
81	CG31560	1	inactive
82	Smyd4-4 (SET and MYND domain containing, class 4, member 4)	1	inactive
83	CG33299	1	inactive
84	CG17778	1	inactive
85	hfp (half pint)	1	inactive
86	hfp (half pint)	2	inactive
87	hfp (half pint)	3	inactive
88	Or98b (Odorant receptor 98b)	1	inactive
89	Or98b (Odorant receptor 98b)	2	inactive
90	RpL18 (Ribosomal protein L18)	1	inactive
91	RpL18 (Ribosomal protein L18)	2	inactive
92	Ankrd49	1	inactive
93	CG2852	1	inactive
94	CG11267	1	inactive
95	bun (bunched)	1	inactive
96	bun (bunched)	2	inactive
97	bun (bunched)	3	inactive
98	Ts (Thymidylate synthase)	1	inactive
99	Ts (Thymidylate synthase)	2	inactive
100	Usp7 (Ubiquitin-specific protease 7)	1	inactive
101	Usp7 (Ubiquitin-specific protease 7)	2	inactive
102	CG15553	1	inactive
103	CG17784	1	inactive
104	Gr22f (Gustatory receptor 22f)	1	inactive
105	Hsp110 (Heat shock protein 110)	1	inactive
106	CG43896	1	inactive
107	CG30375	1	inactive
108	CG15642	1	inactive
109	Achl (Achilles)	1	inactive
110	flfl (falafel)	1	inactive
111	CG14177 (retired record)	1	inactive
112	CR32745 (pseudo)	1	inactive
113	Sox21a	1	inactive
114	CG14269	1	inactive
115	hpRNA:CR18854 + IP3K1	1	inactive
116	CG33155 + mRpL53	1	inactive
117	CG1239	1	inactive
118	Frq2 (Frequenin 2)	1	inactive
119	fax (failed axon connections)	1	inactive
120	CG1902	1	inactive
121	app (approximated)	1	inactive
122	app (approximated)	2	inactive
123	app (approximated)	3	inactive
124	CG8138	1	inactive
125	CG18765	1	inactive
126	CG13062	1	inactive
127	Sema2b (Semaphorin 2b)	1	inactive
128	Sema2b (Semaphorin 2b)	2	inactive
129	Sema2b (Semaphorin 2b)	3	inactive
130	psh (persephone)	1	inactive
131	Dolk (Dolichol kinase)	1	inactive
132	CG3251	1	inactive
133	CG45067	1	inactive
134	CG13813	1	inactive
135	IntS3 (Integrator 3)	1	inactive
136	Cpr62Bc (Cuticular protein 62Bc)	1	inactive
137	RpL21 (Ribosomal protein L21)	1	inactive
138	CG32512	1	inactive
139	CG32512	2	inactive
140	CG32512	3	inactive
141	asf1 (anti-silencing factor 1)	1	inactive
142	CG2006	1	inactive
143	CG11666	1	inactive
144	Or98a (Odorant receptor 98a)	1	inactive
145	Rab9Db + Rab9D + Rab9Fa + 1 more	1	inactive
146	CG10748	1	inactive
147	CG17154	1	inactive
148	ND-42 (NADH dehydrogenase (ubiquinone) 42 kDa subunit)	1	inactive
149	rin (rasputin)	1	inactive
150	CG16800	1	inactive
151	Ythdc1 (YTH domain containing 1)	1	inactive
152	Surf4 (Surfeit 4)	1	inactive
153	etaTry (etaTrypsin)	1	inactive
154	CG2617	1	inactive
155	Gcn2	1	inactive
156	CG3556	1	inactive
157	CG5902	1	inactive

Reformatted: 7 of the entries above
{"gene": "mtrm (matrimony)", "dsRNA no.": 1, "outcome": "inactive"}
{"gene": "CG31897", "dsRNA no.": 1, "outcome": "inactive"}
{"gene": "AttB (Attacin-B)", "dsRNA no.": 1, "outcome": "inactive"}
{"gene": "CG14591", "dsRNA no.": 1, "outcome": "inactive"}
{"gene": "CG33310", "dsRNA no.": 1, "outcome": "inactive"}
{"gene": "CG4042", "dsRNA no.": 1, "outcome": "inactive"}
{"gene": "fmt (fiery mountain)", "dsRNA no.": 1, "outcome": "inactive"}
